From US20230220057A1 come the findings set out here.

No constants are given. Whether binding was seen depends on the method and setting.

B1: Ab4 (antibody, human IgG1, V domains shown)
VH: EVQLVQSGAEVKKPGATVKISCKVSGYTFITYWISWVQQAPGKGLEWMGAIDPSDSDARYSPSFQGRVTITADTSTDTAYMELSSLRSEDTAVYYCAKSDPGYSGYSLLYGFDSWGQGTLVTVSS
VL: DVVMTQSPLSLPVTLGQPASISCRSSQSLVQRNGNTYLSWYQQRPGQSPRLLIYQVSNRYSGVPDRFSGSGSGTDFTLKISRVEAEDVGVYYCGQGAHLPLTFGQGTKVEIK
B2: Ab6 (antibody, human IgG1, V domains shown)
VH: EVQLVQSGAEVKKPGATVKISCKVSGYTFITYWISWVQQAPGKGLEWMGAIDPSDSDARYSPSFQGRVTITADTSTDTAYMELSSLRSEDTAVYYCAKSDPGYSGYSLLYGFDSWGQGTLVTVSS
VL: DVVMTQSPLSLPVTLGQPASISCRSSQSLVQRNGNTYLSWFQQRPGQPPRLLIYQVSNRYSGVPDRFSGSGSGTDFTLKISRVEAEDVGVYYCGQGAHLPLTFGQGTKVEIK
B3: Ab54 (antibody, human IgG1, V domains shown)
VH: EVQLVQSGAEVKKPGESLKISCKISGYSFITYWISWVRQMPGKGLEWMGAIDPSDSDARYSPSFQGQVTISADKSISTAYLQWSSLKASDTAMYYCAKSDPGYSGYSLLYGFDSWGQGTLVTVSS
VL: DVVMTQSPLSLPVTLGQPASISCRSSQSLVQRNGNTYLSWYQQRPGQSPRLLIYQVSNRYSGVPDRFSGSGSGTDFTLKISRVEAEDVGVYYCGQGAHLPLTFGQGTKVEIK
B4: Ab44 (antibody, human IgG1, V domains shown)
VH: EVQLVQSGAEVKKPGESLKISCKGSGYSFITYWISWVRQMPGKGLEWMGAIDPSDSDARYSPSFQGQVTISADKSISTAYLQWSSLKASDTAMYYCAKSDPGYSGYSLLYGFDSWGQGTLVTVSS
VL: DVVMTQSPLSLPVTLGQPASISCRSSQSLVQRNGNTYLSWYQQRPGQSPRLLIYQVSNRYSGVPDRFSGSGSGTDFTLKISRVEAEDVGVYYCGQGAHLPLTFGQGTKVEIK
B5: Ab36 (antibody, human IgG1, V domains shown)
VH: EVQLVQSGAEVKKPGATVKISCKVSGYTFITYWISWVQQAPGKGLEWMGAIDPSDSDARYSPSFQGRVTITADKSTDTAYMELSSLRSEDTAVYYCAKSDPGYSGYSLLYGFDSWGQGTLVTVSS
VL: DVVMTQSPLSLPVTLGQPASISCRSSQSLVQRNGNTYLSWFQQRPGQPPRLLIYQVSNRYSGVPDRFSGSGSGTDFTLKISRVEAEDVGVYYCGQGAHLPLTFGQGTKVEIK

For this assay, the target named is insulin (Sigma). Briefly: polyspecificity ELISA, insulin coated at 5 µg/mL. A general note: An ELISA detects its analyte on a solid surface through an enzyme-linked reagent.
As to B1, the binding entry is “no binding (tested: 100 µg/mL)”.

On to B2, for which the binding result was “no binding (tested: 100 µg/mL)”. For B3 the value was “no binding (tested: 100 µg/mL)”; for B4, “no binding (tested: 100 µg/mL)”; for B5, “no binding (tested: 100 µg/mL)”.
